The values below come from article doi:10.1101/2023.09.13.557663.

Results are given in words; binding and its absence hold for the method and conditions named. In cells and extracts the contact can be indirect. Here binding means that the protein was enriched with, or labelled near, the bait; the list need not be complete.

First the molecules themselves.
B1: SH3BP1 (protein, UniProt Q9Y3L3 1-701)
chain: MMKRQLHRMRQLAQTGSLGRTPETAEFLGEDLLQVEQRLEPAKRAAHNIHKRLQACLQGQSGADMDKRVKKLPLMALSTTMAESFKELDPDSSMGKALEMSCAIQNQLARILAEFEMTLERDVLQPLSRLSEEELPAILKHKKSLQKLVSDWNTLKSRLSQATKNSGSSQGLGGSPGSHSHTTMANKVETLKEEEEELKRKVEQCRDEYLADLYHFVTKEDSYANYFIRLLEIQADYHRRSLSSLDTALAELRENHGQADHSPSMTATHFPRVYGVSLATHLQELGREIALPIEACVMMLLSEGMKEEGLFRLAAGASVLKRLKQTMASDPHSLEEFCSDPHAVAGALKSYLRELPEPLMTFDLYDDWMRAASLKEPGARLQALQEVCSRLPPENLSNLRYLMKFLARLAEEQEVNKMTPSNIAIVLGPNLLWPPEKEGDQAQLDAASVSSIQVVGVVEALIQSADTLFPGDINFNVSGLFSAVTLQDTVSDRLASEELPSTAVPTPATTPAPAPAPAPAPAPALASAATKERTESEVPPRPASPKVTRSPPETAAPVEDMARRTKRPAPARPTMPPPQVSGSRSSPPAPPLPPGSGSPGTPQALPRRLVGSSLRAPTVPPPLPPTPPQPARRQSRRSPASPSPASPGPASPSPVSLSNPAQVDLGAATAEGGAPEAISGVPTPPAIPPQPRPRSLASETN
B2: RAB11FIP1 (protein, UniProt Q6WKZ4 1-1283)
chain: MSLMVSAGRGLGAVWSPTHVQVTVLQARGLRAKGPGGTSDAYAVIQVGKEKYATSVSERSLGAPVWREEATFELPSLLSSGPAAAATLQLTVLHRALLGLDKFLGRAEVDLRDLHRDQGRRKTQWYKLKSKPGKKDKERGEIEVDIQFMRNNMTASMFDLSMKDKSRNPFGKLKDKIKGKNKDSGSDTASAIIPSTTPSVDSDDESVVKDKKKKSKIKTLLSKSNLQKTPLSQSMSVLPTSKPEKVLLRPGDFQSQWDEDDNEDESSSASDVMSHKRTASTDLKQLNQVNFTLPKKEGLSFLGGLRSKNDVLSRSNVCINGNHVYLEQPEAKGEIKDSSPSSSPSPKGFRKKHLFSSTENLAAGSWKEPAEGGGLSSDRQLSESSTKDSLKSMTLPSYRPAPLVSGDLRENMAPANSEATKEAKESKKPESRRSSLLSLMTGKKDVAKGSEGENPLTVPGREKEGMLMGVKPGEDASGPAEDLVRRSEKDTAAVVSRQGSSLNLFEDVQITEPEAEPESKSEPRPPISSPRAPQTRAVKPRLEVSPEAQPTARLPSPTDSPSSLPPLPSSSGQASVPSELGHGADTQSSESPSVFSSLSSPIAAPISTSTPIESWPLVDRGQAKSEGPPLLPKAELQTESLTPVPNSGSSALGSLFKQPSFPANKGTEDSLMGRTRETGTEKNTSSLELEESLPEQPETGRQEEELPRFPCKKQDYSPSSGEAQEVPFALSLSSDGAVSPVGELAAGGDRDLESQAGSLVESKARDAAEEVAPPLPMGASVPSIDSMMRKLEEMGLNLRKDQKKTKKRVSFSEQLFTEEAVAGAALLVEGHSSCPQELNPAWSVAGNASDGEPPESPHAEDSERESVTTPGPATCGAPASPADHLLLPSQEESFSEVPMSEASSAKDTPLFRMEGEDALVTQYQSKASDHEGLLSDPLSDLQLVSDFKSPIMADLNLSLPSIPEVASDDERIDQVEDDGDQVEDDGETAKSSTLDIGALSLGLVVPCPERGKGPSGEADRLVLGEGLCDFRLQAPQASVTAPSEQTTEFGIHKPHLGKSSSLDKQLPGPSGGEEEKPMGNGSPSPPPGTSLDNPVPSPSPSEIFPVTHSFPSSAHSDTHHTSTAESQKKATAEGSAGRVENFGKRKPLLQAWVSPSETHPVSAQPGAGTGSAKHRLHPVKPMNAMATKVANCSLGTATIISENLNNEVMMKKYSPSDPAFAYAQLTHDELIQLVLKQKETISKKEFQVRELEDYIDNLLVRVMEETPNILRIPTQVGKKAGKM
B3: USP8 (protein, UniProt P40818 1-1118)
chain: MPAVASVPKELYLSSSLKDLNKKTEVKPEKISTKSYVHSALKIFKTAEECRLDRDEERAYVLYMKYVTVYNLIKKRPDFKQQQDYFHSILGPGNIKKAVEEAERLSESLKLRYEEAEVRKKLEEKDRQEEAQRLQQKRQETGREDGGTLAKGSLENVLDSKDKTQKSNGEKNEKCETKEKGAITAKELYTMMTDKNISLIIMDARRMQDYQDSCILHSLSVPEEAISPGVTASWIEAHLPDDSKDTWKKRGNVEYVVLLDWFSSAKDLQIGTTLRSLKDALFKWESKTVLRNEPLVLEGGYENWLLCYPQYTTNAKVTPPPRRQNEEVSISLDFTYPSLEESIPSKPAAQTPPASIEVDENIELISGQNERMGPLNISTPVEPVAASKSDVSPIIQPVPSIKNVPQIDRTKKPAVKLPEEHRIKSESTNHEQQSPQSGKVIPDRSTKPVVFSPTLMLTDEEKARIHAETALLMEKNKQEKELRERQQEEQKEKLRKEEQEQKAKKKQEAEENEITEKQQKAKEEMEKKESEQAKKEDKETSAKRGKEITGVKRQSKSEHETSDAKKSVEDRGKRCPTPEIQKKSTGDVPHTSVTGDSGSGKPFKIKGQPESGILRTGTFREDTDDTERNKAQREPLTRARSEEMGRIVPGLPSGWAKFLDPITGTFRYYHSPTNTVHMYPPEMAPSSAPPSTPPTHKAKPQIPAERDREPSKLKRSYSSPDITQAIQEEEKRKPTVTPTVNRENKPTCYPKAEISRLSASQIRNLNPVFGGSGPALTGLRNLGNTCYMNSILQCLCNAPHLADYFNRNCYQDDINRSNLLGHKGEVAEEFGIIMKALWTGQYRYISPKDFKITIGKINDQFAGYSQQDSQELLLFLMDGLHEDLNKADNRKRYKEENNDHLDDFKAAEHAWQKHKQLNESIIVALFQGQFKSTVQCLTCHKKSRTFEAFMYLSLPLASTSKCTLQDCLRLFSKEEKLTDNNRFYCSHCRARRDSLKKIEIWKLPPVLLVHLKRFSYDGRWKQKLQTSVDFPLENLDLSQYVIGPKNNLKKYNLFSVSNHYGGLDGGHYTAYCKNAARQRWFKFDDHEVSDISVSSVKSSAAYILFYTSLGPRVTDVAT
B4: synergin gamma (SYNRG) (protein, UniProt Q9UMZ2 1-1314)
chain: MALRPGAGSGGGGAAGAGAGSAGGGGFMFPVAGGIRPPQAGLMPMQQQGFPMVSVMQPNMQGIMGMNYSSQMSQGPIAMQAGIPMGPMPAAGMPYLGQAPFLGMRPPGPQYTPDMQKQFAEEQQKRFEQQQKLLEEERKRRQFEEQKQKLRLLSSVKPKTGEKSRDDALEAIKGNLDGFSRDAKMHPTPASHPKKPGPSLEEKFLVSCDISTSGQEQIKLNTSEVGHKALGPGSSKKYPSLMASNGVAVDGCVSGTTTAEAENTSDQNLSIEESGVGVFPSQDPAQPRMPPWIYNESLVPDAYKKILETTMTPTGIDTAKLYPILMSSGLPRETLGQIWALANRTTPGKLTKEELYTVLAMIAVTQRGVPAMSPDALNQFPAAPIPTLSGFSMTLPTPVSQPTVIPSGPAGSMPLSLGQPVMGINLVGPVGGAAAQASSGFIPTYPANQVVKPEEDDFQDFQDASKSGSLDDSFSDFQELPASSKTSNSQHGNSAPSLLMPLPGTKALPSMDKYAVFKGIAADKSSENTVPPGDPGDKYSAFRELEQTAENKPLGESFAEFRSAGTDDGFTDFKTADSVSPLEPPTKDKTFPPSFPSGTIQQKQQTQVKNPLNLADLDMFSSVNCSSEKPLSFSAVFSTSKSVSTPQSTGSAATMTALAATKTSSLADDFGEFSLFGEYSGLAPVGEQDDFADFMAFSNSSISSEQKPDDKYDALKEEASPVPLTSNVGSTVKGGQNSTAASTKYDVFRQLSLEGSGLGVEDLKDNTPSGKSDDDFADFHSSKFSSINSDKSLGEKAVAFRHTKEDSASVKSLDLPSIGGSSVGKEDSEDALSVQFDMKLADVGGDLKHVMSDSSLDLPTVSGQHPPAADIEDLKYAAFGSYSSNFAVSTLTSYDWSDRDDATQGRKLSPFVLSAGSGSPSATSILQKKETSFGSSENITMTSLSKVTTFVSEDALPETTFPALASFKDTIPQTSEQKEYENRDYKDFTKQDLPTAERSQEATCPSPASSGASQETPNECSDDFGEFQSEKPKISKFDFLVATSQSKMKSSEEMIKSELATFDLSVQGSHKRSLSLGDKEISRSSPSPALEQPFRDRSNTLNEKPALPVIRDKYKDLTGEVEENERYAYEWQRCLGSALNVIKKANDTLNGISSSSVCTEVIQSAQGMEYLLGVVEVYRVTKRVELGIKATAVCSEKLQQLLKDIDKVWNNLIGFMSLATLTPDENSLDFSSCMLRPGIKNAQELACGVCLLNVDSRSRKEEKPAEEHPKKAFNSETDSFKLAYGGHQYHASCANFWINCVEPKPPGLVLPDLL
B5: EPN3 (protein, UniProt Q9H201 1-632)
chain: MTTSALRRQVKNIVHNYSEAEIKVREATSNDPWGPPSSLMSEIADLTFNTVAFTEVMGMLWRRLNDSGKNWRHVYKALTLLDYLLKTGSERVAHQCRENLYTIQTLKDFQYIDRDGKDQGVNVREKVKQVMALLKDEERLRQERTHALKTKERMALEGIGIGSGQLGFSRRYGEDYSRSRGSPSSYNSSSSSPRYTSDLEQARPQTSGEEELQLQLALAMSREEAEKPVPPASHRDEDLQLQLALRLSRQEHEKEVRSWQGDGSPMANGAGAVVHHQRDREPEREERKEEEKLKTSQSSILDLADIFVPALAPPSTHCSADPWDIPGFRPNTEASGSSWGPSADPWSPIPSGTVLSRSQPWDLTPMLSSSEPWGRTPVLPAGPPTTDPWALNSPHHKLPSTGADPWGASLETSDTPGGASTFDPFAKPPESTETKEGLEQALPSGKPSSPVELDLFGDPSPSSKQNGTKEPDALDLGILGEALTQPSKEARACRTPESFLGPSASSLVNLDSLVKAPQVAKTRNPFLTGLSAPSPTNPFGAGEPGRPTLNQMRTGSPALGLAGGPVGAPLGSMTYSASLPLPLSSVPAGLTLPASVSVFPQAGAFAPQPLLPTPSSAGPRPPPPQTGTNPFL
B6: EPN2 (protein, UniProt O95208 1-641)
chain: MTTSSIRRQMKNIVNNYSEAEIKVREATSNDPWGPSSSLMTEIADLTYNVVAFSEIMSMVWKRLNDHGKNWRHVYKALTLLDYLIKTGSERVAQQCRENIFAIQTLKDFQYIDRDGKDQGINVREKSKQLVALLKDEERLKAERAQALKTKERMAQVATGMGSNQITFGRGSSQPNLSTSHSEQEYGKAGGSPASYHGSPEASLCPQHRTGAPLGQSEELQPLSQRHPFLPHLGLASRPNGDWSQPCLTCDRAARATSPRVSSELEQARPQTSGEEELQLQLALAMSREVAEQEERLRRGDDLRLQMALEESRRDTVKIPKKKEHGSLPQQTTLLDLMDALPSSGPAAQKAEPWGPSASTNQTNPWGGPAAPASTSDPWPSFGTKPAASIDPWGVPTGATVQSVPKNSDPWAASQQPASSAGKRASDAWGAVSTTKPVSVSGSFELFSNLNGTIKDDFSEFDNLRTSKKTAESVTSLPSQNNGTTSPDPFESQPLTVASSKPSSARKTPESFLGPNAALVNLDSLVTRPAPPAQSLNPFLAPGAPATSAPVNPFQVNQPQPLTLNQLRGSPVLGTSTSFGPGPGVESMAVASMTSAAPQPALGATGSSLTPLGPAMMNMVGSVGIPPSAAQATGTTNPFLL

The experiment concerns the target EGFR-flag-TurboID (EGFR-TurboID fusion construct, HeLa clone T1) (UniProt P00533). Kind of experiment: proximity labelling.
In the case of B1, the binding entry was “binds”.
For B2, the binding result is “binds”.
As for B3, the entry is “binds”; as for B4, “binds”.
As for B5, the binding result is “binds”.
The value for B6 was “binds”.
